Data as given in ChEMBL document CHEMBL4303087, “Broad anti-coronaviral activity of FDA approved drugs against SARS-CoV-2 in vitro and SARS-CoV in vivo” (2020).
Structures can show the parent of a compound that is named as a salt.

Key:
SARS-CoV-2 [1] = experiment: microbe, parasite or virus in culture; type: functional, organism-based, Chlorocebus sabaeus; settings: Severe acute respiratory syndrome coronavirus 2, Vero C1008, 72 h
SARS-CoV-2 [2] = experiment: microbe, parasite or virus in culture; type: functional, organism-based, Chlorocebus sabaeus; settings: Severe acute respiratory syndrome coronavirus 2, Vero C1008, 72 h; remark: listed apart in the source

Row | SMILES | IC50 (SARS-CoV-2 [1]) | IC50 (SARS-CoV-2 [2])
1 | OCCN1CCN(CCCN2c3ccccc3Sc3ccc(C(F)(F)F)cc32)CC1 [FLUPHENAZINE HYDROCHLORIDE] | 6.36 µM | 8.98 µM
2 | CN(C)CCCN1c2ccccc2CCc2ccc(Cl)cc21 [CLOMIPRAMINE HYDROCHLORIDE] | 5.63 µM | 7.59 µM
